Paper PMC4682817, “The Cardiac Stress Response Factor Ms1 Can Bind to DNA and Has a Function in the Nucleus”
These are yes or no findings as the source states them, for the method shown.

Target: Ms1 actin binding domain 2 (ABD2, residues 294-375) (rat) (UniProt Q8K4K7)
Test: NMR 15N relaxation (R1/R2 ratios, rotational correlation time); ABD2 alone in solution; 298 K, pH 7.2, 188-500 uM protein, 20 mM sodium phosphate pH 7.0, 50 mM NaCl, 2 mM DTT, 0.02% NaN3; both purified

B1: Ms1 actin binding domain 2 (ABD2, residues 294-375) (domain or fragment, UniProt Q8K4K7 294-375)
chain: KRAEEHIYREIMELCFVIRTMARHRRDGKIQVTFGELFDRYVRISDKVVGILMRARKHGLVHFEGEMLWQGKDDHVVITLLE
In the case of B1, the binding is reported as “no binding (tested: between 188 μM and 500 μM)”.
